Data published in the supplement of paper PMC10849652.
This is one part of the list.

The chains behind the UniProt entries cited, without tags or fusion partners. Where a name states a change or a piece, a line headed by the entry shows the natural chain unless it says otherwise.
UniProt P56182: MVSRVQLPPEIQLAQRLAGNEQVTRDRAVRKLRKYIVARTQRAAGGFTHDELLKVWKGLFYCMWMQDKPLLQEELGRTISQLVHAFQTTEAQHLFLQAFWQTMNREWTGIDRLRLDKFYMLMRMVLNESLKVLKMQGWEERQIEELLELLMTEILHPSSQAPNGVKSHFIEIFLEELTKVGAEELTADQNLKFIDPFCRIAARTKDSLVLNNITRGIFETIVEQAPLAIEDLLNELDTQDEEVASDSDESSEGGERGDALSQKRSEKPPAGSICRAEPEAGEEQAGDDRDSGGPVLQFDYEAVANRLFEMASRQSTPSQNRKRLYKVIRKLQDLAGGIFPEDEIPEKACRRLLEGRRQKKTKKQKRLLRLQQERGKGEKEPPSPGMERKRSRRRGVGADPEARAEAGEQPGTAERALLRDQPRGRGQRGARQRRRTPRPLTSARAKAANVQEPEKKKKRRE
UniProt Q9Y3B9: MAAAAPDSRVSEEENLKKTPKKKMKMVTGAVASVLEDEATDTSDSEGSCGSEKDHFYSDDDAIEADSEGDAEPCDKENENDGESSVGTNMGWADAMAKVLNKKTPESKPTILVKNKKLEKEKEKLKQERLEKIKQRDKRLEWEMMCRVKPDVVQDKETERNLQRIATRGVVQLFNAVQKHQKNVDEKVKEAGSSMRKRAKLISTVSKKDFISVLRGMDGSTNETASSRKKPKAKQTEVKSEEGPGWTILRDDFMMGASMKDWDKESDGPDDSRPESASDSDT
UniProt P04843: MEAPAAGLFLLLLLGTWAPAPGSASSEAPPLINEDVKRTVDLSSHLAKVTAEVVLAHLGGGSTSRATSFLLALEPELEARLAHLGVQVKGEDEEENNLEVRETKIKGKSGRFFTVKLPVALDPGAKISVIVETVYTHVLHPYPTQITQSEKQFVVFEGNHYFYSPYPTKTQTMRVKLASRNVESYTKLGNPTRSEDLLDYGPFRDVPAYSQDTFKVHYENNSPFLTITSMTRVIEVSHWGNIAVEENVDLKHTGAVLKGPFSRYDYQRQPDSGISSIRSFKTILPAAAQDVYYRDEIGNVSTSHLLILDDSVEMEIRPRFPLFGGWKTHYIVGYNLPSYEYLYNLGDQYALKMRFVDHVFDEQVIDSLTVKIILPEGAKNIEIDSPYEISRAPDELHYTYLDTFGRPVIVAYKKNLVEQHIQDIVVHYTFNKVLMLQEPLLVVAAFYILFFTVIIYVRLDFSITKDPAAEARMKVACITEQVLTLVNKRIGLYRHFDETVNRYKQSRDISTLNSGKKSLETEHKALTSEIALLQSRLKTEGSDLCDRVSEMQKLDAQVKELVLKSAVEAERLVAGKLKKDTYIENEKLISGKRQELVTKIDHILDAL
UniProt Q96IZ7: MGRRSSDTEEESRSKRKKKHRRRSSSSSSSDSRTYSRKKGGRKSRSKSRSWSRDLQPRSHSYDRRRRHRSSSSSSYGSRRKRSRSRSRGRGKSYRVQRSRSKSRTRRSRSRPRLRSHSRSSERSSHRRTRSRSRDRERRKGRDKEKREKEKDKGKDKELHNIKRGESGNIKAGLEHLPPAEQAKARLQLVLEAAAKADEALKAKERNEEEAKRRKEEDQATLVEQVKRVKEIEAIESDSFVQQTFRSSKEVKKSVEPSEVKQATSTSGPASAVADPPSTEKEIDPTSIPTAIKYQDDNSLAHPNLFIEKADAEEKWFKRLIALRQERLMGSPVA
UniProt Q8N122, whole entry, looked up: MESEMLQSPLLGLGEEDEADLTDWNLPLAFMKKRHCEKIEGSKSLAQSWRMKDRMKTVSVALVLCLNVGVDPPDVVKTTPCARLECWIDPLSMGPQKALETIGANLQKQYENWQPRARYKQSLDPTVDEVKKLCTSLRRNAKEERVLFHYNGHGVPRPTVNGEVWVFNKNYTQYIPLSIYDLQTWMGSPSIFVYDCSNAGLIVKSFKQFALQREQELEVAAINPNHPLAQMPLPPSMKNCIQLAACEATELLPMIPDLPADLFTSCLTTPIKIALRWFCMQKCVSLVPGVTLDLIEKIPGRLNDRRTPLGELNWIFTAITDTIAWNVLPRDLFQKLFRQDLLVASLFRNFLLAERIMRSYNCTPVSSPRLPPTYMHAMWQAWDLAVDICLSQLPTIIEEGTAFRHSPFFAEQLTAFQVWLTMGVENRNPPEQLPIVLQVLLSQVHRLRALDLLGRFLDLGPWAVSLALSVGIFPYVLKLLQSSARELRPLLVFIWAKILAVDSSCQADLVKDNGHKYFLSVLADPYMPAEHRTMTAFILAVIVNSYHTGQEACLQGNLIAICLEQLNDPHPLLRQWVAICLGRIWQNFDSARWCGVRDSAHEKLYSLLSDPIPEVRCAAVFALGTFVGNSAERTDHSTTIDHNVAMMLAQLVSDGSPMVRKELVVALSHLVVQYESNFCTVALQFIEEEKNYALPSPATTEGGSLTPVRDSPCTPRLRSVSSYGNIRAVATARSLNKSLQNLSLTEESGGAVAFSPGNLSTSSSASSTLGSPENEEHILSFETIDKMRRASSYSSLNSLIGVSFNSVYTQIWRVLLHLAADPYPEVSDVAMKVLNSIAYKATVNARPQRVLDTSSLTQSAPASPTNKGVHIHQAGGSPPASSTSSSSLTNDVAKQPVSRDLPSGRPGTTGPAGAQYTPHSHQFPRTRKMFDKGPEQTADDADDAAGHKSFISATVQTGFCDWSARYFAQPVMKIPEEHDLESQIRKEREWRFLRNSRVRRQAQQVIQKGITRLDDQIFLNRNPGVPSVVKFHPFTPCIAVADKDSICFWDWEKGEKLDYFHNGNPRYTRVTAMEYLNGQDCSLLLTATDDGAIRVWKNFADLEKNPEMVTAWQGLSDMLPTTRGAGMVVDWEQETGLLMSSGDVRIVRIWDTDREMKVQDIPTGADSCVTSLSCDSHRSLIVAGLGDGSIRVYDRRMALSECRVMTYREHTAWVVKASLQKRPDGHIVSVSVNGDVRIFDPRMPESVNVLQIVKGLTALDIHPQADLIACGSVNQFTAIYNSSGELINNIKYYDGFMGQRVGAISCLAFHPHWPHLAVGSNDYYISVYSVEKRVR
UniProt Q9NQC3: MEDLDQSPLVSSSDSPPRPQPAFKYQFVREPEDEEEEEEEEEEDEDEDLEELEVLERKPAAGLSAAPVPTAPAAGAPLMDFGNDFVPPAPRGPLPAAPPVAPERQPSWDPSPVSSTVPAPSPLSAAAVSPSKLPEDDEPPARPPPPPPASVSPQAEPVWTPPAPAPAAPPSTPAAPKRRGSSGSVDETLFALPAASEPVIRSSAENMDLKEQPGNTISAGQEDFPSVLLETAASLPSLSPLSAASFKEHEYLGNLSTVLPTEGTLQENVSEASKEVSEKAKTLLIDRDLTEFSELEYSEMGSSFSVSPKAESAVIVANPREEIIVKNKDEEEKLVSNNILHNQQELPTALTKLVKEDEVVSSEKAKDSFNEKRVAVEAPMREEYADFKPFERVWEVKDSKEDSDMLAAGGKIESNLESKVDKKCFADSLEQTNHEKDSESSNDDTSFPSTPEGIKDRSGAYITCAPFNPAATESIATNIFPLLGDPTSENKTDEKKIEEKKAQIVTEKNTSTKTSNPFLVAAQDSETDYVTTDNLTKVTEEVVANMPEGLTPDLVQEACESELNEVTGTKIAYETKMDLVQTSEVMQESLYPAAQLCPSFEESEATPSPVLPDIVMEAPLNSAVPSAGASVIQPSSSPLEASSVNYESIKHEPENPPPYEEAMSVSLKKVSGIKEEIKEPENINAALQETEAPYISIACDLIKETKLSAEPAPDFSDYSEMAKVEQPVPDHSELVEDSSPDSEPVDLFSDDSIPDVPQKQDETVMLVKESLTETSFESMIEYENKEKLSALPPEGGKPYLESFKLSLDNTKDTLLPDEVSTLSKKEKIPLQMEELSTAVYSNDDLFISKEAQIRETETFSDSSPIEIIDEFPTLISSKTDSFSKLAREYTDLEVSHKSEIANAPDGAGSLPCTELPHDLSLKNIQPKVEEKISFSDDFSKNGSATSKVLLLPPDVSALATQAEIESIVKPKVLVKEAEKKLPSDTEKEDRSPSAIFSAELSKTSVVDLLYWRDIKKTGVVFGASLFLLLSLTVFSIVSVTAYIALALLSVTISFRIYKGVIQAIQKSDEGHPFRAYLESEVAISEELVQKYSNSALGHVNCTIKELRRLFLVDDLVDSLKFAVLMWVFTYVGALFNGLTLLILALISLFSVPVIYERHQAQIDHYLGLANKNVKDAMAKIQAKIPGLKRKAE
UniProt Q7LG56, whole entry, looked up: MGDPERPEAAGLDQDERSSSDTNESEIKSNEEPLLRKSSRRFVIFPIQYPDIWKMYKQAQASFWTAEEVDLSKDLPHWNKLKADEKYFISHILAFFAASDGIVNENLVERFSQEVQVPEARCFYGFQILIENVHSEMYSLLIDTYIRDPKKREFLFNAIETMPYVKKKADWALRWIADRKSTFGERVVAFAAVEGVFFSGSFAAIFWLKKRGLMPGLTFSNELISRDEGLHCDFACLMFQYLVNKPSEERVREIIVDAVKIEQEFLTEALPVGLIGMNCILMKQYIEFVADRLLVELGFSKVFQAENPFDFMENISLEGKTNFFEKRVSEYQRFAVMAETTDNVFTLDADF
UniProt Q14684: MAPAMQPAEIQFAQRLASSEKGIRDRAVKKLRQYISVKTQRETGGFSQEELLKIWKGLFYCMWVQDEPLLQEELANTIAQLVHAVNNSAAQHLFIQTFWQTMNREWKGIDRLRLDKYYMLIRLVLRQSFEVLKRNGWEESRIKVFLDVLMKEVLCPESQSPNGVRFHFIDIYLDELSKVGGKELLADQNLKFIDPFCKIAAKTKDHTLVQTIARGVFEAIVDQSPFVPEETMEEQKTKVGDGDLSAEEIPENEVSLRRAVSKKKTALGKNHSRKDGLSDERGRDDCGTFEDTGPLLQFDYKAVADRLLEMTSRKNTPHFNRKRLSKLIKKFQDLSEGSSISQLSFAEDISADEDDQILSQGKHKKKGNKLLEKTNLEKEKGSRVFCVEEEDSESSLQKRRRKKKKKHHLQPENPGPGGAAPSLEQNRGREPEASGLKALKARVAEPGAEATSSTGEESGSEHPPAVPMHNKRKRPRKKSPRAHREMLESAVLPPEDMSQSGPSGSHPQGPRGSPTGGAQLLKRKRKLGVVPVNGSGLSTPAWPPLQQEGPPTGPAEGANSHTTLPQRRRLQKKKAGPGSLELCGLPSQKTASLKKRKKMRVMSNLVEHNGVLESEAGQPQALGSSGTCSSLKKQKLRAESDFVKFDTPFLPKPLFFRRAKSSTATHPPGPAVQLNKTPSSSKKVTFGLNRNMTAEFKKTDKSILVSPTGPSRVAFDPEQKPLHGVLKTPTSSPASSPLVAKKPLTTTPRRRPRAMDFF
UniProt O75298: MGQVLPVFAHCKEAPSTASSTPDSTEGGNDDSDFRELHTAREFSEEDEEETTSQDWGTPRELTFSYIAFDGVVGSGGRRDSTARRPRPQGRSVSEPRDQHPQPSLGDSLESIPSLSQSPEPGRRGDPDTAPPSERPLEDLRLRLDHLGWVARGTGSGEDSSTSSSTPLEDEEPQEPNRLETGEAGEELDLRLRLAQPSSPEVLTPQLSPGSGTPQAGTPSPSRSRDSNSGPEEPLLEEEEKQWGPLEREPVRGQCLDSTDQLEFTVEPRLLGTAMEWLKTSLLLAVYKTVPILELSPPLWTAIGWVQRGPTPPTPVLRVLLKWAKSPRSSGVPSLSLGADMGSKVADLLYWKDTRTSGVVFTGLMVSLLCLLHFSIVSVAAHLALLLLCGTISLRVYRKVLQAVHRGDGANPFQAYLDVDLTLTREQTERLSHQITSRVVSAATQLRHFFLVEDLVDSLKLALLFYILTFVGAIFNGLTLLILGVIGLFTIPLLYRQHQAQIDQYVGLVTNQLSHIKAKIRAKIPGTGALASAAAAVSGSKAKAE

Legend:
Experiment in all cases: log2 fold change, soluble protein after heating vs DMSO (PISA); higher = thermal stabilisation; K562 lysate, 10 uM; active = over 0.2 and 3.5 SD of the protein, either way, in both replicates (recomputed)
ibrutinib = compound: C=CC(=O)N1CCC[C@@H](n2nc(-c3ccc(Oc4ccccc4)cc3)c3c(N)ncnc32)C1 [ibrutinib]
Procedure, shortened: (§1)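 Soluble protein was defined as the supernatant remaining after 21,000xg for 90 min, following pooling of heated aliquots and adjustment to 0.5% NP-40 at 4°C. Before that, crude K562 extract at 1 mg/mL protein in PBS pH 7.4 with 1 mM MgCl2 was treated with 10 μM compound for 30 min and heated for 3 min across 48°C-58°C. Quantification used TMTpro 16plex LC-MS/MS with channel sums equalised, and values are log-two fold changes in thermal stability relative to solvent controls from duplicates.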

[1] = compound: CC(=O)c1cnc2ccc(-c3cc(Cl)c(O)c(Cl)c3)nc2c1N[C@H]1CC[C@H](CN(C)C)CC1
Procedure, shortened: as §1

ralimetinib = compound: CC(C)(C)Cn1c(N)nc2ccc(-c3[nH]c(C(C)(C)C)nc3-c3ccc(F)cc3)nc21 [ralimetinib]
Procedure, shortened: as §1

[2] = compound: CC(C)(O)CC(=O)NCCn1ccc2ncnc(Nc3ccc(Oc4cccc(C(F)(F)F)c4)c(Cl)c3)c21
Procedure, shortened: as §1

[3] = compound: CC(C)C1=C2N=C(C=C(N2N=C1)NCC3=CC=CC=C3)NCCCCCCN
Procedure, shortened: as §1

[4] = compound: CC1=C(C(CC(=O)N1)C2=CC=C(C=C2)C(F)(F)F)C(=O)NC3=C(C=C4C(=C3)C=NN4)F
Procedure, shortened: as §1

[5] = compound: CC1=C(C2=C(C=C1)C(=O)C3=CC=CC=C3N2CCCN)C
Procedure, shortened: as §1

[6] = compound: CC1=C(C=C(C=C1)NC(=O)C2=CC(=CC=C2)C(C)(C)C#N)NC3=CC4=C(C=C3)N=CN(C4=O)C
Procedure, shortened: as §1

[7] = compound: CC1=C(C=C(C=C1)NC(=O)C2=CC(=CC=C2)N(C)C)NC(=O)C3=CC=C(C=C3)O
Procedure, shortened: as §1

[8] = compound: CC1=CC=C(C=C1)SC2=C3C=C(SC3=CN=C2)C(=O)N
Procedure, shortened: as §1

vemurafenib = compound: CCCS(=O)(=O)Nc1ccc(F)c(C(=O)c2c[nH]c3ncc(-c4ccc(Cl)cc4)cc23)c1F [vemurafenib]
Procedure, shortened: as §1

[9] = compound: CCCS(=O)(=O)Nc1ccc(F)c(C(=O)c2c[nH]c3ncc(Cl)cc23)c1F
Procedure, shortened: as §1

barasertib = compound: CCN(CCCOc1ccc2c(Nc3cc(CC(=O)Nc4cccc(F)c4)[nH]n3)ncnc2c1)CCOP(=O)(O)O [barasertib]
Procedure, shortened: as §1

[10] = compound: CC[C@@H]1C(=O)N(C)c2cnc(Nc3ccc(C(=O)NC4CCN(C)CC4)cc3OC)nc2N1C1CCCC1
Procedure, shortened: as §1

volasertib = compound: CC[C@@H]1C(=O)N(C)c2cnc(Nc3ccc(C(=O)N[C@H]4CC[C@H](N5CCN(CC6CC6)CC5)CC4)cc3OC)nc2N1C(C)C [volasertib]
Procedure, shortened: as §1

[11] = compound: CCn1c(C(=O)N(C2CC2)C2CC2)cc2c3c(ncn3C)c(Nc3cc(C)n(C)n3)nc21
Procedure, shortened: as §1

[12] = compound: CCn1cc(-c2ccnc3[nH]c(-c4cccc(CN(C)C)c4)cc23)c(-c2ccc(NC(=O)N(C)C)cc2)n1
Procedure, shortened: as §1

[13] = compound: CN1CCC(CNc2ccc3ncc(-c4cccc(OC(F)(F)F)c4)n3n2)CC1
Procedure, shortened: as §1

saracatinib = compound: CN1CCN(CCOc2cc(OC3CCOCC3)c3c(Nc4c(Cl)ccc5c4OCO5)ncnc3c2)CC1 [saracatinib]
Procedure, shortened: as §1

sotrastaurin = compound: CN1CCN(c2nc(C3=C(c4c[nH]c5ccccc45)C(=O)NC3=O)c3ccccc3n2)CC1 [sotrastaurin]
Procedure, shortened: as §1

Measured: log2 fold change

RPL36AL (UniProt Q969Q0)
inactive: ibrutinib -0.038 | [1] 0.004 | ralimetinib -0.018 | [2] 0.088 | [3] -0.004 | [4] -0.001 | [5] 0.068 | [6] -0.038 | [7] 0.013 | [8] 0.052 | vemurafenib -0.039 | [9] 0.012 | barasertib -0.009 | [10] -0.04 | volasertib -0.013 | [11] 0.076 | [12] -0.076 | [13] -0.004 | saracatinib -0.091 | sotrastaurin -0.032

RRP1 (UniProt P56182)
inactive: ibrutinib -0.067 | [1] 0.048 | ralimetinib 0.056 | [2] -0.038 | [3] -0.044 | [4] -0.013 | [5] 0.001 | [6] -0.075 | [7] 0.103 | [8] 0.022 | vemurafenib 0.052 | [9] 0.059 | barasertib 0.06 | [10] -0.142 | volasertib -0.034 | [11] 0.11 | [12] 0.097 | [13] -0.091 | saracatinib -0.02 | sotrastaurin 0.019

RRP15 (UniProt Q9Y3B9)
inactive: ibrutinib 0.1 | [1] 0.007 | ralimetinib 0.007 | [2] 0.007 | [3] -0.018 | [4] -0.026 | [5] -0.001 | [6] 0.045 | [7] -0.018 | [8] -0.053 | vemurafenib 0.05 | [9] 0.033 | barasertib -0.057 | [10] 0.065 | volasertib 0.023 | [11] 0.037 | [12] -0.011 | [13] 0.057 | saracatinib 0.002 | sotrastaurin 0.003

RPN1 (UniProt P04843)
inactive: ibrutinib -0.017 | [1] -0.006 | ralimetinib -0.006 | [2] -0.035 | [3] -0.016 | [4] -0.002 | [5] 0.025 | [6] 0.011 | [7] -0.002 | [8] 0.001 | vemurafenib 0.005 | [9] -0.01 | barasertib 0.024 | [10] 0.032 | volasertib -0.011 | [11] 0.014 | [12] -0.07 | [13] 0.015 | saracatinib -0.023 | sotrastaurin -0.008

RSRC1 (UniProt Q96IZ7)
inactive: ibrutinib 0.033 | [1] 0.02 | ralimetinib 0.035 | [2] -0.013 | [3] 0.001 | [4] -0.08 | [5] -0.079 | [6] 0.011 | [7] 0.028 | [8] -0.008 | vemurafenib -0.002 | [9] 0.012 | barasertib -0.035 | [10] -0.013 | volasertib 0.029 | [11] -0.054 | [12] 0.054 | [13] 0.005 | saracatinib -0.039 | sotrastaurin -0.006

RPTOR (UniProt Q8N122)
inactive: ibrutinib -0.042 | [1] 0.008 | ralimetinib -0.001 | [2] -0.045 | [3] -0.012 | [4] 0.005 | [5] -0.039 | [6] 0.005 | [7] 0.038 | [8] 0.01 | vemurafenib -0.028 | [9] 0.022 | barasertib 0.052 | [10] -0.024 | volasertib -0.046 | [11] 0.038 | [12] 0.018 | [13] -0.039 | saracatinib 0 | sotrastaurin 0.046

RPS27A (UniProt P62979)
inactive: ibrutinib -0.034 | [1] 0 | ralimetinib 0.082 | [2] -0.073 | [3] 0.049 | [4] -0.026 | [5] 0.019 | [6] 0.022 | [7] -0.004 | [8] 0.018 | vemurafenib -0.071 | [9] -0.021 | barasertib -0.056 | [10] 0.076 | volasertib 0.016 | [11] -0.031 | [12] 0.067 | [13] 0.008 | saracatinib 0.044 | sotrastaurin -0.034

RPS20 isoform 2 (UniProt P60866)
inactive: ibrutinib -0.02 | [1] -0.008 | ralimetinib 0.001 | [2] -0.008 | [3] -0.006 | [4] -0.006 | [5] -0.012 | [6] 0.041 | [7] -0.019 | [8] 0.038 | vemurafenib -0.005 | [9] -0.035 | barasertib 0.07 | [10] -0.011 | volasertib -0.001 | [11] 0.016 | [12] -0.103 | [13] 0.05 | saracatinib 0.019 | sotrastaurin -0.03

RPL7A (UniProt P62424)
inactive: ibrutinib -0.046 | [1] 0.007 | ralimetinib -0.007 | [2] -0.025 | [3] -0.003 | [4] -0.038 | [5] -0.016 | [6] -0.029 | [7] -0.011 | [8] 0.018 | vemurafenib -0.003 | [9] -0.002 | barasertib -0.051 | [10] 0.012 | volasertib -0.008 | [11] -0.01 | [12] 0.203 | [13] -0.024 | saracatinib 0.013 | sotrastaurin -0.014

RPS8 (UniProt P62241)
inactive: ibrutinib -0.023 | [1] 0.002 | ralimetinib -0.032 | [2] -0.003 | [3] 0.017 | [4] -0.008 | [5] -0.064 | [6] -0.014 | [7] -0.004 | [8] 0.05 | vemurafenib -0.052 | [9] -0.005 | barasertib -0.06 | [10] -0.028 | volasertib -0.009 | [11] -0.005 | [12] 0.038 | [13] -0.014 | saracatinib 0.006 | sotrastaurin -0.004

4 neighbouring entries out of the list so far:
RPL36AL (UniProt Q969Q0)
inactive: ibrutinib -0.038 | [1] 0.004 | ralimetinib -0.018 | [2] 0.088 | [3] -0.004 | [4] -0.001 | [5] 0.068 | [6] -0.038 | [7] 0.013 | [8] 0.052 | vemurafenib -0.039 | [9] 0.012 | barasertib -0.009 | [10] -0.04 | volasertib -0.013 | [11] 0.076 | [12] -0.076 | [13] -0.004 | saracatinib -0.091 | sotrastaurin -0.032

RRP1 (UniProt P56182)
inactive: ibrutinib -0.067 | [1] 0.048 | ralimetinib 0.056 | [2] -0.038 | [3] -0.044 | [4] -0.013 | [5] 0.001 | [6] -0.075 | [7] 0.103 | [8] 0.022 | vemurafenib 0.052 | [9] 0.059 | barasertib 0.06 | [10] -0.142 | volasertib -0.034 | [11] 0.11 | [12] 0.097 | [13] -0.091 | saracatinib -0.02 | sotrastaurin 0.019

RRP15 (UniProt Q9Y3B9)
inactive: ibrutinib 0.1 | [1] 0.007 | ralimetinib 0.007 | [2] 0.007 | [3] -0.018 | [4] -0.026 | [5] -0.001 | [6] 0.045 | [7] -0.018 | [8] -0.053 | vemurafenib 0.05 | [9] 0.033 | barasertib -0.057 | [10] 0.065 | volasertib 0.023 | [11] 0.037 | [12] -0.011 | [13] 0.057 | saracatinib 0.002 | sotrastaurin 0.003

RPN1 (UniProt P04843)
inactive: ibrutinib -0.017 | [1] -0.006 | ralimetinib -0.006 | [2] -0.035 | [3] -0.016 | [4] -0.002 | [5] 0.025 | [6] 0.011 | [7] -0.002 | [8] 0.001 | vemurafenib 0.005 | [9] -0.01 | barasertib 0.024 | [10] 0.032 | volasertib -0.011 | [11] 0.014 | [12] -0.07 | [13] 0.015 | saracatinib -0.023 | sotrastaurin -0.008

(next part)

RTN4 isoform 5 (UniProt Q9NQC3)
inactive: ibrutinib -0.062 | [1] 0.06 | ralimetinib 0.059 | [2] -0.054 | [3] -0.033 | [4] 0.083 | [5] -0.019 | [6] -0.001 | [7] 0.025 | [8] -0.018 | vemurafenib -0.01 | [9] -0.038 | barasertib 0.023 | [10] -0.085 | volasertib -0.019 | [11] 0.02 | [12] -0.103 | [13] 0.113 | saracatinib 0.057 | sotrastaurin 0.033

RPS14 (UniProt P62263)
inactive: ibrutinib -0.003 | [1] -0.016 | ralimetinib 0.011 | [2] -0.021 | [3] 0.004 | [4] 0.001 | [5] -0.084 | [6] -0.022 | [7] 0.009 | [8] 0.018 | vemurafenib 0.007 | [9] 0.005 | barasertib -0.042 | [10] 0.019 | volasertib -0.006 | [11] -0.006 | [12] -0.091 | [13] 0.022 | saracatinib 0.006 | sotrastaurin 0.006

RRM2B isoform 6 (UniProt Q7LG56)
inactive: ibrutinib 0.008 | [1] -0.008 | ralimetinib 0.016 | [2] 0.005 | [3] 0.005 | [4] 0 | [5] -0.019 | [6] 0.044 | [7] -0.062 | [8] -0.03 | vemurafenib 0.028 | [9] 0.017 | barasertib -0.017 | [10] 0.057 | volasertib 0.024 | [11] -0.022 | [12] 0.005 | [13] 0.055 | saracatinib -0.016 | sotrastaurin 0.026

RRP1B (UniProt Q14684)
inactive: ibrutinib 0.075 | [1] -0.019 | ralimetinib 0.04 | [2] 0.022 | [3] 0.023 | [4] -0.008 | [5] -0.098 | [6] -0.033 | [7] 0.044 | [8] 0.025 | vemurafenib 0.02 | [9] 0.027 | barasertib 0.081 | [10] 0.012 | volasertib -0.055 | [11] -0.024 | [12] 0.031 | [13] -0.018 | saracatinib 0 | sotrastaurin 0.04

RTN2 (UniProt O75298)
inactive: ibrutinib -0.048 | [1] 0.023 | ralimetinib 0.049 | [2] 0 | [3] -0.014 | [4] 0.089 | [5] 0.072 | [6] -0.04 | [7] 0.035 | [8] 0.026 | vemurafenib -0.092 | [9] -0.055 | barasertib 0.074 | [10] 0.032 | volasertib 0.014 | [11] 0.085 | [12] -0.02 | [13] 0.03 | saracatinib 0.017 | sotrastaurin 0.01
